Experimental data taken from patent US20250320496A1, “MODULATION OF ABCB11 GENE TRANSCRIPTION USING ANTISENSE OLIGONUCLEOTIDES TARGETING REGULATORY RNAS” (CAMP4 Therapeutics Corporation, priority 2022, published 2025).
Some of these results come from one statement about several compounds together. Strand notation (5' to 3'): a small letter for the sugar, then the base; units joined by * are phosphorothioate-linked, units joined directly phosphodiester-linked; [ ] holds rarer units or linkages, { } end groups; capitals alone tell only the bases. e = 2'-O-(2-methoxyethyl) (MOE); l = locked nucleic acid (LNA); [5mC] = 5-methylcytosine; d = 2'-deoxy (DNA)

Test system: human ABCB11 mRNA
Assay: ASO treatment of primary human hepatocytes (PHH), ABCB11 mRNA by RT-qPCR normalized to B2M
Format: cell-based
Settings: chemically modified derivative ASOs (FIG. 4)
Method: Primary human hepatocytes (PHH) were thawed using Lonza Human Cryopreserved Hepatocyte Thawing Medium and plated in 96-well collagen-coated plates (5.5-6.0×10^4 cells per well). Four hours later, the media was replaced with sterile-filtered QualGro™ Hepatocyte Culture Medium (BioIVT) containing antibiotic supplement, 0.3 mg/ml Matrigel® matrix (Corning®), and ASO at the desired concentration (e.g., 1.25 μM, 2.5 μM, 5 μM, or 10 μM). After 72 hrs., cells were harvested by aspirating media, washing once with phosphate-buffered saline (PBS), and lysed with 150 μl of Buffer RLT lysis buffer (Qiagen®). Plates were frozen at-80° C. during cell lysis. After thawing, total RNA was isolated using the Qiagen RNEasy kit as instructed by manufacturer. cDNA (random-primed) was synthesized from 10 μl of RNA using the LifeTech High Capacity cDNA Reverse Transcription kit. 2 μl of cDNA was used for reverse transcription-quantitative PCR (RT-qPCR) analyses using standard Taqman” reagents from Applied Biosystems™ to measure ABCB11 and CYP7A1 gene expression. Gene expression data was normalized to the housekeeper gene, beta-2-microglobulin (B2M).
To assess the ability of ASOs targeting ABCB11 regRNAs to modulate the expression of human ABCB11, 195 ASOs targeting the human ABCB11 regRNAs were synthesized. These initial ASOs were screened in PHHs at 5 μM to determine their efficacy in increasing human ABCB11 mRNA using quantitative PCR. This initial screen identified 10 ASOs that induced increased expression of ABCB11 mRNA by more than 1.5-fold (as compared to untreated PHHs).

Substance	upregulated human ABCB11 expression as compared to untreated PHHs
CO-7081: derivative ASO with additional chemical modifications based on parent ASO CO-3986 (eT*eG*eT*lT*eT*lT*eG*l[5mC]*eT*lT*eG*lG*eT*l[5mC]*eA*lA*eG*lA*eG*eG)	greater than or equal to 1.5 fold
CO-7082: derivative ASO with additional chemical modifications based on parent ASO CO-3986 (eT*eG*lT*eT*lT*eT*lG*e[5mC]*lT*eT*lG*eG*lT*e[5mC]*lA*eA*lG*eA*eG*eG)	greater than or equal to 1.5 fold
CO-7141: derivative ASO with additional chemical modifications based on parent ASO CO-4517 (antisense e[5mC]*eT*eT*lA*eG*lG*eA*lG*eG*lA*eT*lT*eA*lT*eT*lT*eA*lA*e[5mC]*e[5mC])	greater than or equal to 1.5 fold
CO-7148: derivative ASO with additional chemical modifications based on parent ASO CO-4517 (antisense e[5mC]*e[5mC]*eT*eT*eA*eG*dG*dA*dG*dG*dA*dT*dT*dA*dT*dT*eT*eA*eA*e[5mC]*e[5mC]*eT)	greater than or equal to 1.5 fold
CO-7149: derivative ASO with additional chemical modifications based on parent ASO CO-4517 (antisense e[5mC]*e[5mC]*eT*eT*eA*eG*eG*eA*eG*eG*eA*eT*eT*eA*eT*eT*eT*eA*eA*e[5mC]*e[5mC]*eT)	greater than or equal to 1.5 fold
CO-7150: derivative ASO with additional chemical modifications based on parent ASO CO-4517 (antisense e[5mC]*e[5mC]*eT*eT*eA*dG*dG*dA*eG*dG*dA*dT*dT*eA*dT*dT*dT*eA*eA*e[5mC]*e[5mC]*eT)	greater than or equal to 1.5 fold
CO-7151: derivative ASO with additional chemical modifications based on parent ASO CO-4517 (antisense e[5mC]*e[5mC]*eT*eT*eA*lG*dG*dA*lG*dG*dA*dT*dT*lA*dT*dT*lT*eA*eA*e[5mC]*e[5mC]*eT)	greater than or equal to 1.5 fold
CO-7166: derivative ASO with additional chemical modifications based on parent ASO CO-4535 (antisense eG*eT*eT*eA*eT*eT*eA*eA*eT*eT*e[5mC]*eT*eA*e[5mC]*eA*eG*eA*eG*eG*eG)	greater than or equal to 1.5 fold
CO-7172: derivative ASO with additional chemical modifications based on parent ASO CO-4535 (antisense eT*eT*eA*eG*eT*e[5mC]*eT*eT*eA*eT*eT*eT*eG*eG*e[5mC]*eG*eT*eT*eA*eT)	greater than or equal to 1.5 fold
CO-7175: derivative ASO with additional chemical modifications based on parent ASO CO-4529 (antisense eG*eT*eG*eG*eA*lG*d[5mC]*dA*lA*dA*d[5mC]*lT*dA*dG*lG*e[5mC]*eA*e[5mC]*eT*eG)	greater than or equal to 1.5 fold
CO-7178: derivative ASO with additional chemical modifications based on parent ASO CO-4529 (antisense eG*eT*eG*lG*eA*lG*e[5mC]*lA*eA*lA*e[5mC]*lT*eA*lG*eG*l[5mC]*eA*l[5mC]*eT*eG)	greater than or equal to 1.5 fold
CO-7179: derivative ASO with additional chemical modifications based on parent ASO CO-4529 (antisense eG*eT*lG*eG*lA*eG*l[5mC]*eA*lA*eA*l[5mC]*eT*lA*eG*lG*e[5mC]*lA*e[5mC]*eT*eG)	greater than or equal to 1.5 fold
CO-7180: derivative ASO with additional chemical modifications based on parent ASO CO-4529 (antisense eG*eT*lG*eG*eA*lG*e[5mC]*eA*lA*eA*e[5mC]*lT*eA*eG*lG*e[5mC]*eA*l[5mC]*eT*eG)	greater than or equal to 1.5 fold
CO-7181: derivative ASO with additional chemical modifications based on parent ASO CO-4529 (antisense eG*eT*eG*eG*lA*eG*e[5mC]*eA*lA*eA*e[5mC]*eT*lA*eG*eG*e[5mC]*lA*e[5mC]*eT*eG)	greater than or equal to 1.5 fold
CO-7182: derivative ASO with additional chemical modifications based on parent ASO CO-4529 (antisense eG*eT*eG*lG*eA*eG*e[5mC]*lA*eA*eA*e[5mC]*lT*eA*eG*eG*l[5mC]*eA*e[5mC]*eT*eG)	greater than or equal to 1.5 fold
CO-7184: derivative ASO with additional chemical modifications based on parent ASO CO-4529 (antisense eG*eT*eG*eG*lA*eG*e[5mC]*eA*eA*lA*e[5mC]*eT*eA*eG*lG*e[5mC]*eA*e[5mC]*eT*eG)	greater than or equal to 1.5 fold
CO-7186: derivative ASO with additional chemical modifications based on parent ASO CO-4535 (antisense eT*eG*eG*l[5mC]*eG*dT*dT*lA*dT*dT*dA*lA*dT*dT*d[5mC]*lT*eA*e[5mC]*eA*eG)	greater than or equal to 1.5 fold
CO-7187: derivative ASO with additional chemical modifications based on parent ASO CO-4535 (antisense eT*eG*eG*e[5mC]*lG*dT*dT*dA*lT*dT*dA*dA*lT*dT*d[5mC]*eT*lA*e[5mC]*eA*eG)	greater than or equal to 1.5 fold
CO-7188: derivative ASO with additional chemical modifications based on parent ASO CO-4535 (antisense eT*eG*eG*l[5mC]*eG*lT*eT*lA*eT*lT*eA*lA*eT*lT*e[5mC]*lT*eA*l[5mC]*eA*eG)	greater than or equal to 1.5 fold
CO-7189: derivative ASO with additional chemical modifications based on parent ASO CO-4535 (antisense eT*eG*lG*e[5mC]*lG*eT*lT*eA*lT*eT*lA*eA*lT*eT*l[5mC]*eT*lA*e[5mC]*eA*eG)	greater than or equal to 1.5 fold
CO-7190: derivative ASO with additional chemical modifications based on parent ASO CO-4535 (antisense eT*eG*lG*e[5mC]*eG*lT*eT*eA*lT*eT*eA*lA*eT*eT*l[5mC]*eT*eA*l[5mC]*eA*eG)	greater than or equal to 1.5 fold
CO-7191: derivative ASO with additional chemical modifications based on parent ASO CO-4535 (eT*eG*eG*e[5mC]*lG*eT*eT*eA*lT*eT*eA*eA*lT*eT*e[5mC]*eT*lA*e[5mC]*eA*eG)	greater than or equal to 1.5 fold
CO-7193: derivative ASO with additional chemical modifications based on parent ASO CO-4535 (eT*eG*eG*e[5mC]*eG*lT*eT*eA*eT*eT*lA*eA*eT*eT*e[5mC]*lT*eA*e[5mC]*eA*eG)	greater than or equal to 1.5 fold
CO-7194: derivative ASO with additional chemical modifications based on parent ASO CO-4535 (eT*eG*eG*e[5mC]*lG*eT*eT*eA*eT*lT*eA*eA*eT*eT*l[5mC]*eT*eA*e[5mC]*eA*eG)	greater than or equal to 1.5 fold
